Reference: article PMC7544145
These are yes or no findings as the source states them, for the method shown. Binding seen in cells or lysates may run through a third protein. Some binding calls cover weakened binding; strength is not graded here. Sequences can lack the tags named with a protein.

Target: T1, Flag-tagged full-length wild-type PMK-3 (C. elegans) (UniProt O44514)
T1 sequence: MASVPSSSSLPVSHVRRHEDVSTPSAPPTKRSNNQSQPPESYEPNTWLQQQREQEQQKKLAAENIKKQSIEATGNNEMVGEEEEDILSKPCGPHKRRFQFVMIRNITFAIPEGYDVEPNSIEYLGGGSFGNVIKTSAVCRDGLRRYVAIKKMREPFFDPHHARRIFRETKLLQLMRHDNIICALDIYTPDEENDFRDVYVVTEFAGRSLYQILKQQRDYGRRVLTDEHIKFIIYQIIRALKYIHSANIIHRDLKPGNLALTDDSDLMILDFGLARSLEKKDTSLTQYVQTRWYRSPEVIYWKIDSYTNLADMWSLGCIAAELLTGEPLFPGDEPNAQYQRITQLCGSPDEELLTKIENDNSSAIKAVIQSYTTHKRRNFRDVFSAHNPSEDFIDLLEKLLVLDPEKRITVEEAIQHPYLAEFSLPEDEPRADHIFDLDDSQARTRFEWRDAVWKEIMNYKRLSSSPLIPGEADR
Assay: co-IP; Myc-tagged IRE-1 cytoplasmic region and Flag-PMK-3 co-transfected into HEK293T; lysate supernatant incubated with anti-FLAG M2 affinity gel beads at 4°C overnight, washed three times, immunoblot

- binding: binds
B1: Myc-tagged cytoplasmic region of IRE-1 (domain or fragment, UniProt Q09499 456-967)
chain: QCGRQWDQQKSTSRMDSFEIVNNPGESRSAQTSKQSNRGSFGWANRKIEIPEGWMAVGSKLMYSPSDILGTGCEGTVVYRGTFDGREVAVKRVVSEFVKFAHREADLLRESDTHPHVIRYFCMESDSQFRYLALELCIASLNDYVEQKEVQQNVTIALRDIMKQATDGLAHLHASKIVHRDMKPQNVLITMASQRGEMRAVISDFGLCKRVQPGKNSISRGIASGLAGTDGWIAPEVLISASTSYPVDIFSLGCIFYYVLTSGTHPFGKSLHRQANIVNGEYTLNKLADLDDWSLADDLISSMLNVEPLHRLTADAVLNHPFFWTSEKRLAYFSDVSDRVEKEEDNSPVVRRIETDARIVVCGGWREKICDALKEDLRKFRTYKSFSVRDLLRAMRNKKHHYRELPEDVRQSLGDIPDQFLHYFTSRFPRLLLHVYKATEYCSGEAVFKRYYSDDVRARMYPIVEEEERVRKKIKEEMANEVWARAPKPVEQRTPLKLDKRNIKKKSNPNTD
